Consider one substance from patent publication US20250206779A1 (UNIVERSIDAD DE CHILE, priority 2021, published 2025).

[ ]: non-standard residue; d: D form.

The nature of this series: general procedure: Fmoc solid-phase peptide synthesis. The following applies: whole synthesis, photodiode array detector.

Consider “H-[dH][dF][dP][dH][dI][dY][dV][dR][dD]-OH (SMILES CC[C@@H](C)[C@@H](NC(=O)[C@@H](Cc1c[nH]cn1)NC(=O)[C@H]1CCCN1C(=O)[C@@H](Cc1ccccc1)NC(=O)[C@H](N)Cc1c[nH]cn1)C(=O)N[C@H](Cc1ccc(O)cc1)C(=O)N[C@@H](C(=O)N[C@H](CCCNC(=N)N)C(=O)N[C@H](CC(=O)O)C(=O)O)C(C)C)”, for which the “purity (crude or final not stated)” value is reported as >98%.
